Assay results from publication PMC10803359.
Results are given in words; binding and its absence hold for the method and conditions named. Some entries that bind do so weakly or less than the wild type. Tags and fused reporters may be left off the sequences shown.

Target: T1, EMBRYONIC FLOWER 2 (EMF2), yeast two-hybrid fusion (Arabidopsis thaliana) (UniProt Q8L6Y4)
T1 sequence: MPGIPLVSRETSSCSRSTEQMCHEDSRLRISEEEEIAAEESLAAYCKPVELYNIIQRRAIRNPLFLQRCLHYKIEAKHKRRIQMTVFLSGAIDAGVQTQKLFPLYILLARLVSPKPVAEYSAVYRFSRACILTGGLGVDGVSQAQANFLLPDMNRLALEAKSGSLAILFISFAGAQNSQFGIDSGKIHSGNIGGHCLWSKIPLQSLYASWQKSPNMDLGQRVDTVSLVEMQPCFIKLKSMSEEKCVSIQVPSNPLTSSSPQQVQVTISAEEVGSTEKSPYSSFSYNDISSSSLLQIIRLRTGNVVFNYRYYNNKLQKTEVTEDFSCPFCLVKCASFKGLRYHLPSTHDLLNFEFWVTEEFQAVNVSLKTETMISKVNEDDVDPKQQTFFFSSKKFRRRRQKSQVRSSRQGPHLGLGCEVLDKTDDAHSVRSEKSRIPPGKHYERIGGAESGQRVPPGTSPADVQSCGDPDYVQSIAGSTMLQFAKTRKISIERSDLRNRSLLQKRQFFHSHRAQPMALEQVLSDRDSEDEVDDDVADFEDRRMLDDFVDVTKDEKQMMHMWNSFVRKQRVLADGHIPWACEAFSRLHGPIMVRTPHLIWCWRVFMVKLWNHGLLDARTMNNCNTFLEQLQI
Test: two-hybrid; GAL4 yeast two-hybrid in S. cerevisiae AH109; growth on SD-L-W-H in serial dilutions, 3 to 4 days at 28 °C; empty bait and prey vectors as negative controls

B1: UBP5, yeast two-hybrid fusion (enzyme, UniProt O22207 1-924)
chain: MAEVSMGSSSSSTDLSPEEERVFIRDIAIAAEANSKEGDTFYLITQRWWQEWIEYVNQDQPCNTNDGSSLSEHCDSPGSSTLKKPSRIDNSDLIYDSSLEDPSNTSEIIETLQEGRDYVLLPQEVWNQLRSWYGGGPTLARRVISSGLSQTELAVEVYPLRLQLLLMPKSDHSAIRISKKETIRELHRRACEIFDLDSEHVRIWDYYGHQKYSLMNDLDKTLDDANLQMDQDILVEVLDINGTLSSAHIQSAQENGLVDGDSTSILIEPSKSSLAAAGGFSSSRNAFRTGSVEVSQSFDNTYSSTGVTTRGSTAGLTGLLNLGNTCFMNSAIQCLVHTPEFASYFQEDYHQEINWQNPLGMVGELALAFGDLLRKLWAPGRTPIAPRPFKAKLARFAPQFSGYNQHDSQELLAFLLDGLHEDLNRVKHKPYINSRDADGRPDEEVADEFWKNHIARNDSIIVDVCQGQYKSTLVCPICNKVSVTFDPFMYLSLPLQFNTTRAITVTVFSCDKTALPSTITVNVSKQGRCRDLIQALTNACSLKQSEELKLAEIRNNFIHRLFEDPLIPLSSIKDDDHLAAYKLSKSSENTTLLRLVLRRRDQKAGERESTVQLKPCGTPLLSSASCGDALTKGKIHCLVQNMLSPFRREESVGKKGNSDSSIPERRSARFNNTEEEDKVGGLKKAKKSNSSDLGASKLSLQLIDEDNKTINLPDNEAEAMKLPSSATVTIYLDWTPELSGMYDITCLESLPEVLKYGPTTKKARSEPLSLYACLEAFLREEPLVPDEMWFCPQCNERRQASKKLDLWRLPEVLVIHLKRFSYSRSMKHKLETFVNFPIHDLDLTKYVANKNLSQPQLYELYALTNHYGGMGSGHYTAHIKLLDDSRWYNFDDSHISHINEDDVKSGAAYVLFYRRKSDAGGKMT
binding: binds
